In patent publication US10363323B2 (RUPRECHT-KARLS-UNIVERSITAT HEIDELBERG, priority 2011, dated 2019):

Experiment: general procedure: peptide synthesis; polystyrene copolymerized with polyoxyethylen; dicyclohexylcarbodiimide, hydroxybenzotriazole, benzotriazil-1-yl-oxytris (dimet)

## stearoyl-[K(DOTA[Gd])]3-NLSTSNPLGFFPDHQLDP-amide
Late stage modification step
  step yield: 77%

## stearoyl-[K(DOTA)]3-NLSTSNPLGFFPDHQLDP-amide
Conjugation step
  conjugation yield: 55%
